We go through ten molecules from publication PMC12862363, “AURKB-driven dissolution of CIZ1–RNA assemblies from the inactive X chromosome in mitosis” (Nucleic Acids Research, 2026).

Protein sequences, listed by entry. Tags and fused reporters are not part of them.
UniProt Q14980: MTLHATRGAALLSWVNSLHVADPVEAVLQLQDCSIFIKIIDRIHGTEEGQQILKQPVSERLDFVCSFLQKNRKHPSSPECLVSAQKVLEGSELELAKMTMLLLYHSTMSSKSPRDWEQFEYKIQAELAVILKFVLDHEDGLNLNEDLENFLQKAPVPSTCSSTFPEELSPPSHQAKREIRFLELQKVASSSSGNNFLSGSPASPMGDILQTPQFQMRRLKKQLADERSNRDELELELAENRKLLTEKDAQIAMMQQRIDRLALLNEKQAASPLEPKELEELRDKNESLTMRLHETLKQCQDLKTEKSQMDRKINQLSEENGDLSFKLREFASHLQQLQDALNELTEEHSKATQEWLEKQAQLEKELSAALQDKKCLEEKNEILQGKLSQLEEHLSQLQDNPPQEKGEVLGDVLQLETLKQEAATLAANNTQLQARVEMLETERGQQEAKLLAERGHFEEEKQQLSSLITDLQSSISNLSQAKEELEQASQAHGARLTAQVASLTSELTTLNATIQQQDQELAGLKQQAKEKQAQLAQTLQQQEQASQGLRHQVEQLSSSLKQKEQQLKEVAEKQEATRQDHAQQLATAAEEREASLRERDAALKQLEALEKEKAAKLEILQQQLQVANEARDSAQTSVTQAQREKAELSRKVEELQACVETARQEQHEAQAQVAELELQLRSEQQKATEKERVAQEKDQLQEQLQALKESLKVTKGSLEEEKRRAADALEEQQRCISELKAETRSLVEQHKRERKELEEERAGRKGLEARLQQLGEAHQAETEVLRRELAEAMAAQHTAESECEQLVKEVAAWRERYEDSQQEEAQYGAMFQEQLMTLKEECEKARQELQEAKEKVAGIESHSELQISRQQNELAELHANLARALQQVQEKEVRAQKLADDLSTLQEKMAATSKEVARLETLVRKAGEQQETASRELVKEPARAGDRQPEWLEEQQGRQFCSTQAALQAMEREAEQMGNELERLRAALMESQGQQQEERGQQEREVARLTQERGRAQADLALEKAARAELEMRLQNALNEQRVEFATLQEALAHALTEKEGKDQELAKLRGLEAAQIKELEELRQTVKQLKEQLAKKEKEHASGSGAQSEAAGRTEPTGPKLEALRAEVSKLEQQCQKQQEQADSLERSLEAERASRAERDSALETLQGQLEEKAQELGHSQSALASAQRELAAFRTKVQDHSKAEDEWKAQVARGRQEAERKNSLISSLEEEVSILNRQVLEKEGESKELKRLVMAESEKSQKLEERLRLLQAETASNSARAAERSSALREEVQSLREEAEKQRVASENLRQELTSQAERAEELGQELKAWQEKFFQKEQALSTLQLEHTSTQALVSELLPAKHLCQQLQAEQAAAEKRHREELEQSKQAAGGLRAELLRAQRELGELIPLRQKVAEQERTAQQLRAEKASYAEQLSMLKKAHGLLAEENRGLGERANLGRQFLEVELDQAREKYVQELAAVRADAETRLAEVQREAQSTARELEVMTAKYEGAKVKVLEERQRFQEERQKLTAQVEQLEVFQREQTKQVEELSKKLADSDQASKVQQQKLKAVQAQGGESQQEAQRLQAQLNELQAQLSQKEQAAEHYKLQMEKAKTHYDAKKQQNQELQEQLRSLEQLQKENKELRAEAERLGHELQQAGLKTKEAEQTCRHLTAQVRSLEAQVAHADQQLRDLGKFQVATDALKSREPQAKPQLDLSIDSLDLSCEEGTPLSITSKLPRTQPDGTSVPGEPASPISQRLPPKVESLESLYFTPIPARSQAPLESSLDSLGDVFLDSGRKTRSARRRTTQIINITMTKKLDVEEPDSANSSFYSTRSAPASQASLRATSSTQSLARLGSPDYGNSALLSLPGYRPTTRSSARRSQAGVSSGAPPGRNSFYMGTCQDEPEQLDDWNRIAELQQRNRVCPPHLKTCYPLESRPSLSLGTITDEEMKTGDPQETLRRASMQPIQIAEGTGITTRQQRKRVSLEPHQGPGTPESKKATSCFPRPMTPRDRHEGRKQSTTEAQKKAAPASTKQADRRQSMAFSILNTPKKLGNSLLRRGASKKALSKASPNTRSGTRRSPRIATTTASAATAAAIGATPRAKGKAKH
UniProt O60264: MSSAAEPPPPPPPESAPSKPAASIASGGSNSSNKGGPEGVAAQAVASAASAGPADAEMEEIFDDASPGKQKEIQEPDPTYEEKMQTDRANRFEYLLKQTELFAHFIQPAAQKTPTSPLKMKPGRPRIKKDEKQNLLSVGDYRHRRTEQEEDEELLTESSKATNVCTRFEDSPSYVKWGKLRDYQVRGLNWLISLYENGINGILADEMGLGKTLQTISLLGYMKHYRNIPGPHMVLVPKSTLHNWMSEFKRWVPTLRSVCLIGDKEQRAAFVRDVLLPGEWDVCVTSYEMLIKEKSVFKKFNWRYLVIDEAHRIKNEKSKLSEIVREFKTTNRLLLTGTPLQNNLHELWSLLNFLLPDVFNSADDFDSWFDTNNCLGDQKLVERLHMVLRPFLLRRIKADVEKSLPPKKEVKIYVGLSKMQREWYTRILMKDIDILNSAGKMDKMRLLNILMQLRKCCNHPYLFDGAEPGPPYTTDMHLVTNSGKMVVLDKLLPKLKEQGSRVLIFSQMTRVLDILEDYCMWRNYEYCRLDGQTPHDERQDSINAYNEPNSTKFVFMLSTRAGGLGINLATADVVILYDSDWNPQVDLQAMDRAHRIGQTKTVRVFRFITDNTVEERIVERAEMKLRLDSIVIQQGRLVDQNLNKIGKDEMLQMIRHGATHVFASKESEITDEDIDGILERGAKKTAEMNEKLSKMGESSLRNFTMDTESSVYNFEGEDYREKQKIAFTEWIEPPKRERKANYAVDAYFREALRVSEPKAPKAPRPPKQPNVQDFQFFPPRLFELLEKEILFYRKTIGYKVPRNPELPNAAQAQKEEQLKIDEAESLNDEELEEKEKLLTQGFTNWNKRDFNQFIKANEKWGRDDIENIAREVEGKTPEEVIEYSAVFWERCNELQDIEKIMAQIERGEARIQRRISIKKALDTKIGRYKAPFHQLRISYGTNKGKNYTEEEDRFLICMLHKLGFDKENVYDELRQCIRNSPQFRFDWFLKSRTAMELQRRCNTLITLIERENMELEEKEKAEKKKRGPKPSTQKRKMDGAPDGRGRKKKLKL
UniProt Q9NWH9: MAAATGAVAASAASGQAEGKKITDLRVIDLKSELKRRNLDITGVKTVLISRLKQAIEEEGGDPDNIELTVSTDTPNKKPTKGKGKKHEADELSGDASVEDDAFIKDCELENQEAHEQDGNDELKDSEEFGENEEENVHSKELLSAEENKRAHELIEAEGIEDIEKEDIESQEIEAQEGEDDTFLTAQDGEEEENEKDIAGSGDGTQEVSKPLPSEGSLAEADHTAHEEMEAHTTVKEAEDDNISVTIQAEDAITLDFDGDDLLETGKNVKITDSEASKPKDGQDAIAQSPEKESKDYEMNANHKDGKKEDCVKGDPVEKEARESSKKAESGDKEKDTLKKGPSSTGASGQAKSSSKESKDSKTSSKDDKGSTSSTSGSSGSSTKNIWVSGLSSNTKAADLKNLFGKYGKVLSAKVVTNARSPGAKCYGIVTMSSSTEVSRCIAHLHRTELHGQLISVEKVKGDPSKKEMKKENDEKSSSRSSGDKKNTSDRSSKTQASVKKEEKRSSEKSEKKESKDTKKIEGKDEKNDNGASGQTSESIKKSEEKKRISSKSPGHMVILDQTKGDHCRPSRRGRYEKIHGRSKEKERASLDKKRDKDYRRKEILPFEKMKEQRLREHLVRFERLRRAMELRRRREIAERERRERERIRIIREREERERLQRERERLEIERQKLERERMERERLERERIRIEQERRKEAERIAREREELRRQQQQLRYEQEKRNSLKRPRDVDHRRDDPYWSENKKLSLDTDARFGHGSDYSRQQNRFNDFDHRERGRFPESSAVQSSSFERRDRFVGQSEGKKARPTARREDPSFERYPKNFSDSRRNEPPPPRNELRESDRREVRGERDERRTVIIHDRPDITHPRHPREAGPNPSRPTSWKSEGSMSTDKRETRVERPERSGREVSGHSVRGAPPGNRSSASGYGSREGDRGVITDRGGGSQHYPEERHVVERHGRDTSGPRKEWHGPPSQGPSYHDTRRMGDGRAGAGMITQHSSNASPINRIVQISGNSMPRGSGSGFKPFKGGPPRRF

Assay [1] addresses GST-C179Δtail (Human CIZ1) (human) (UniProt Q9ULV3). Put plainly: affinity purification with mass spectrometry; GST-CIZ1 fragment on Glutathione Sepharose 4B beads (prepared with Benzonase and RNase); HeLa nuclear extract (400 and 800 mM NaCl fractions pooled, diluted to 135 mM NaCl), 2 h at 4°C, five washes in isotonic buffer; on-bead trypsin digest, label-free MS; partner: >=2-fold over GST control, q <= 0.05; studies A, B (with C179Δtail) and C (with C179DDD), n = 4 replicates each; only the target purified.

The target in assay [2] is T1, GST-C179WT (Human CIZ1) (human) (UniProt Q9ULV3).
T1 sequence: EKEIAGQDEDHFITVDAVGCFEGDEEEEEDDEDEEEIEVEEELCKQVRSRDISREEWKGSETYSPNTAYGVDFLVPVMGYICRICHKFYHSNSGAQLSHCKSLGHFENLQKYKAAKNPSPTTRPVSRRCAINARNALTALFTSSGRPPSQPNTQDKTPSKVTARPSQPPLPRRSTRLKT
The description is as above.

These are yes or no findings as the source states them, for the method shown. In cells and extracts the contact can be indirect. A yes stands for co-enrichment or nearness to the bait. Other partners may have been found. For part of these data: Tags and fused reporters may be left off the sequences shown.

On to NUMA1 (from UniProt Q14980 1-2115), for which the binding result in assay [1] and in assay [2] was “binds” each time. For SMARCA5 (from UniProt O60264 1-1052), the binding entry in assay [1] and in assay [2] was “binds” each time.

Regarding HNRNPK (from UniProt P61978 1-463), the binding entry in assay [2] was “binds”.

As for “SLTM (SAFB-like transcription modulator) (from UniProt Q9NWH9 1-1034)”, the binding result in assay [1] and in assay [2] was “binds” each time.

B1: CCDC86 (protein, UniProt Q9H6F5 1-360)
chain: MDTPLRRSRRLGGLRPESPESLTSVSRTRRALVEFESNPEETREPGSPPSVQRAGLGSPERPPKTSPGSPRLQQGAGLESPQGQPEPGAASPQRQQDLHLESPQRQPEYSPESPRCQPKPSEEAPKCSQDQGVLASELAQNKEELTPGAPQHQLPPVPGSPEPYPGQQAPGPEPSQPLLELTPRAPGSPRGQHEPSKPPPAGETVTGGFGAKKRKGSSSQAPASKKLNKEELPVIPKGKPKSGRVWKDRSKKRFSQMLQDKPLRTSWQRKMKERQERKLAKDFARHLEEEKERRRQEKKQRRAENLKRRLENERKAEVVQVIRNPAKLKRAKKKQLRSIEKRDTLALLQKQPPQQPAAKI
As to B1, the binding entry in assay [1] and in assay [2] was “binds” throughout.

B2: DDX24 (protein, UniProt Q9GZR7 1-859)
chain: MKLKDTKSRPKQSSCGKFQTKGIKVVGKWKEVKIDPNMFADGQMDDLVCFEELTDYQLVSPAKNPSSLFSKEAPKRKAQAVSEEEEEEEGKSSSPKKKIKLKKSKNVATEGTSTQKEFEVKDPELEAQGDDMVCDDPEAGEMTSENLVQTAPKKKKNKGKKGLEPSQSTAAKVPKKAKTWIPEVHDQKADVSAWKDLFVPRPVLRALSFLGFSAPTPIQALTLAPAIRDKLDILGAAETGSGKTLAFAIPMIHAVLQWQKRNAAPPPSNTEAPPGETRTEAGAETRSPGKAEAESDALPDDTVIESEALPSDIAAEARAKTGGTVSDQALLFGDDDAGEGPSSLIREKPVPKQNENEEENLDKEQTGNLKQELDDKSATCKAYPKRPLLGLVLTPTRELAVQVKQHIDAVARFTGIKTAILVGGMSTQKQQRMLNRRPEIVVATPGRLWELIKEKHYHLRNLRQLRCLVVDEADRMVEKGHFAELSQLLEMLNDSQYNPKRQTLVFSATLTLVHQAPARILHKKHTKKMDKTAKLDLLMQKIGMRGKPKVIDLTRNEATVETLTETKIHCETDEKDFYLYYFLMQYPGRSLVFANSISCIKRLSGLLKVLDIMPLTLHACMHQKQRLRNLEQFARLEDCVLLATDVAARGLDIPKVQHVIHYQVPRTSEIYVHRSGRTARATNEGLSLMLIGPEDVINFKKIYKTLKKDEDIPLFPVQTKYMDVVKERIRLARQIEKSEYRNFQACLHNSWIEQAAAALEIELEEDMYKGGKADQQEERRRQKQMKVLKKELRHLLSQPLFTESQKTKYPTQSGKPPLLVSAPSKSESALSCLSKQKKKKTKKPKEPQPEQPQPSTSAN
On to B2, for which the binding entry in assay [1] and in assay [2] was “binds” each time.

B3: matrin-3 (protein, UniProt P43243 1-847)
chain: MSKSFQQSSLSRDSQGHGRDLSAAGIGLLAAATQSLSMPASLGRMNQGTARLASLMNLGMSSSLNQQGAHSALSSASTSSHNLQSIFNIGSRGPLPLSSQHRGDADQASNILASFGLSARDLDELSRYPEDKITPENLPQILLQLKRRRTEEGPTLSYGRDGRSATREPPYRVPRDDWEEKRHFRRDSFDDRGPSLNPVLDYDHGSRSQESGYYDRMDYEDDRLRDGERCRDDSFFGETSHNYHKFDSEYERMGRGPGPLQERSLFEKKRGAPPSSNIEDFHGLLPKGYPHLCSICDLPVHSNKEWSQHINGASHSRRCQLLLEIYPEWNPDNDTGHTMGDPFMLQQSTNPAPGILGPPPPSFHLGGPAVGPRGNLGAGNGNLQGPRHMQKGRVETSRVVHIMDFQRGKNLRYQLLQLVEPFGVISNHLILNKINEAFIEMATTEDAQAAVDYYTTTPALVFGKPVRVHLSQKYKRIKKPEGKPDQKFDQKQELGRVIHLSNLPHSGYSDSAVLKLAEPYGKIKNYILMRMKSQAFIEMETREDAMAMVDHCLKKALWFQGRCVKVDLSEKYKKLVLRIPNRGIDLLKKDKSRKRSYSPDGKESPSDKKSKTDGSQKTESSTEGKEQEEKSGEDGEKDTKDDQTEQEPNMLLESEDELLVDEEEAAALLESGSSVGDETDLANLGDVASDGKKEPSDKAVKKDGSASAAAKKKLKKVDKIEELDQENEAALENGIKNEENTEPGAESSENADDPNKDTSENADGQSDENKDDYTIPDEYRIGPYQPNVPVGIDYVIPKTGFYCKLCSLFYTNEEVAKNTHCSSLPHYQKLKKFLNKLAEERRQKKET
As for B3, in assay [2], the binding result was “binds”.

B4: BAZ1B (protein, UniProt Q9UIG0 1-1483)
chain: MAPLLGRKPFPLVKPLPGEEPLFTIPHTQEAFRTREEYEARLERYSERIWTCKSTGSSQLTHKEAWEEEQEVAELLKEEFPAWYEKLVLEMVHHNTASLEKLVDTAWLEIMTKYAVGEECDFEVGKEKMLKVKIVKIHPLEKVDEEATEKKSDGACDSPSSDKENSSQIAQDHQKKETVVKEDEGRRESINDRARRSPRKLPTSLKKGERKWAPPKFLPHKYDVKLQNEDKIISNVPADSLIRTERPPNKEIVRYFIRHNALRAGTGENAPWVVEDELVKKYSLPSKFSDFLLDPYKYMTLNPSTKRKNTGSPDRKPSKKSKTDNSSLSSPLNPKLWCHVHLKKSLSGSPLKVKNSKNSKSPEEHLEEMMKMMSPNKLHTNFHIPKKGPPAKKPGKHSDKPLKAKGRSKGILNGQKSTGNSKSPKKGLKTPKTKMKQMTLLDMAKGTQKMTRAPRNSGGTPRTSSKPHKHLPPAALHLIAYYKENKDREDKRSALSCVISKTARLLSSEDRARLPEELRSLVQKRYELLEHKKRWASMSEEQRKEYLKKKREELKKKLKEKAKERREKEMLERLEKQKRYEDQELTGKNLPAFRLVDTPEGLPNTLFGDVAMVVEFLSCYSGLLLPDAQYPITAVSLMEALSADKGGFLYLNRVLVILLQTLLQDEIAEDYGELGMKLSEIPLTLHSVSELVRLCLRRSDVQEESEGSDTDDNKDSAAFEDNEVQDEFLEKLETSEFFELTSEEKLQILTALCHRILMTYSVQDHMETRQQMSAELWKERLAVLKEENDKKRAEKQKRKEMEAKNKENGKVENGLGKTDRKKEIVKFEPQVDTEAEDMISAVKSRRLLAIQAKKEREIQEREMKVKLERQAEEERIRKHKAAAEKAFQEGIAKAKLVMRRTPIGTDRNHNRYWLFSDEVPGLFIEKGWVHDSIDYRFNHHCKDHTVSGDEDYCPRSKKANLGKNASMNTQHGTATEVAVETTTPKQGQNLWFLCDSQKELDELLNCLHPQGIRESQLKERLEKRYQDIIHSIHLARKPNLGLKSCDGNQELLNFLRSDLIEVATRLQKGGLGYVEETSEFEARVISLEKLKDFGECVIALQASVIKKFLQGFMAPKQKRRKLQSEDSAKTEEVDEEKKMVEEAKVASALEKWKTAIREAQTFSRMHVLLGMLDACIKWDMSAENARCKVCRKKGEDDKLILCDECNKAFHLFCLRPALYEVPDGEWQCPACQPATARRNSRGRNYTEESASEDSEDDESDEEEEEEEEEEEEEDYEVAGLRLRPRKTIRGKHSVIPPAARSGRRPGKKPHSTRRSQPKAPPVDDAEVDELVLQTKRSSRRQSLELQKCEEILHKIVKYRFSWPFREPVTRDEAEDYYDVITHPMDFQTVQNKCSCGSYRSVQEFLTDMKQVFTNAEVYNCRGSHVLSCMVKTEQCLVALLHKHLPGHPYVRRKRKKFPDRLAEDEGDSEPEAVGQSRGRRQKK
Consider B4, for which the binding entry in assay [1] and in assay [2] was “binds” in each case.

B5: GNL3 (protein, UniProt Q9BVP2 1-549)
chain: MKRPKLKKASKRMTCHKRYKIQKKVREHHRKLRKEAKKRGHKKPRKDPGVPNSAPFKEALLREAELRKQRLEELKQQQKLDRQKELEKKRKLETNPDIKPSNVEPMEKEFGLCKTENKAKSGKQNSKKLYCQELKKVIEASDVVLEVLDARDPLGCRCPQVEEAIVQSGQKKLVLILNKSDLVPKENLESWLNYLKKELPTVVFRASTKPKDKGKITKRVKAKKNAAPFRSEVCFGKEGLWKLLGGFQETCSKAIRVGVIGFPNVGKSSIINSLKQEQMCNVGVSMGLTRSMQVVPLDKQITIIDSPSFIVSPLNSSSALALRSPASIEVVKPMEAASAILSQADARQVVLKYTVPGYRNSLEFFTVLAQRRGMHQKGGIPNVEGAAKLLWSEWTGASLAYYCHPPTSWTPPPYFNESIVVDMKSGFNLEELEKNNAQSIRAIKGPHLANSILFQSSGLTNGIIEEKDIHEELPKRKERKQEEREDDKDSDQETVDEEVDENSSGMFAAEETGEALSEETTAGEQSTRSFILDKIIEEDDAYDFSTDYV
Turning to B5, the binding result in assay [1] and in assay [2] was “binds” each time.

B6: RRP1B (protein, UniProt Q14684 1-758)
chain: MAPAMQPAEIQFAQRLASSEKGIRDRAVKKLRQYISVKTQRETGGFSQEELLKIWKGLFYCMWVQDEPLLQEELANTIAQLVHAVNNSAAQHLFIQTFWQTMNREWKGIDRLRLDKYYMLIRLVLRQSFEVLKRNGWEESRIKVFLDVLMKEVLCPESQSPNGVRFHFIDIYLDELSKVGGKELLADQNLKFIDPFCKIAAKTKDHTLVQTIARGVFEAIVDQSPFVPEETMEEQKTKVGDGDLSAEEIPENEVSLRRAVSKKKTALGKNHSRKDGLSDERGRDDCGTFEDTGPLLQFDYKAVADRLLEMTSRKNTPHFNRKRLSKLIKKFQDLSEGSSISQLSFAEDISADEDDQILSQGKHKKKGNKLLEKTNLEKEKGSRVFCVEEEDSESSLQKRRRKKKKKHHLQPENPGPGGAAPSLEQNRGREPEASGLKALKARVAEPGAEATSSTGEESGSEHPPAVPMHNKRKRPRKKSPRAHREMLESAVLPPEDMSQSGPSGSHPQGPRGSPTGGAQLLKRKRKLGVVPVNGSGLSTPAWPPLQQEGPPTGPAEGANSHTTLPQRRRLQKKKAGPGSLELCGLPSQKTASLKKRKKMRVMSNLVEHNGVLESEAGQPQALGSSGTCSSLKKQKLRAESDFVKFDTPFLPKPLFFRRAKSSTATHPPGPAVQLNKTPSSSKKVTFGLNRNMTAEFKKTDKSILVSPTGPSRVAFDPEQKPLHGVLKTPTSSPASSPLVAKKPLTTTPRRRPRAMDFF
In the case of B6, the binding result in assay [1] and in assay [2] was “binds” each time.
